Data as given in PubChem BioAssay AID1259424 (University of Nebraska Medical Center, 2018)
In all, the deposit lists about 14,000 reagents; shown is a random part of them. 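Higher correlation or smaller distance means closer resemblance to KSR1 loss; control wells, including KSR1 knockdowns, recur on many plates.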 Further read-outs or replicates are left out here. The record does not give: the time to read-out.

- Assay: 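Find knockdowns that reproduce the expression shifts seen after KSR1 loss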 (primary screen)
- System: human HCT116 colon cancer cells
- Reagents: siRNA pool against human genes, 50 nM
- Measurement: 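Log2 levels of six mRNAs (branched-DNA multiplex), adjusted by two reference genes and the non-targeting median, then scored against the average KSR1 knockdown pattern as Pearson r and euclidean distance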
- Reading the numbers: mean correlation with KSR1 profile: higher = expression change more like KSR1 knockdown

{"Target gene": "PPP4R3A", "mean correlation with KSR1 profile": -0.483}
{"Target gene": "ANGPTL7", "mean correlation with KSR1 profile": -0.592}
{"Target gene": "BIRC3", "mean correlation with KSR1 profile": -0.123}
{"Target gene": "UBR4", "mean correlation with KSR1 profile": 0.615}
{"Target gene": "TCP11L1", "mean correlation with KSR1 profile": 0.175}
{"Target gene": "TXLNG", "mean correlation with KSR1 profile": -0.462}
{"Target gene": "KHSRP", "mean correlation with KSR1 profile": -0.527}
{"Target gene": "DOK1", "mean correlation with KSR1 profile": 0.0143}
{"Target gene": "OR2C1", "mean correlation with KSR1 profile": 0.79}

Entries above whose gene name begins with T or t:
{"Target gene": "TCP11L1", "mean correlation with KSR1 profile": 0.175}
{"Target gene": "TXLNG", "mean correlation with KSR1 profile": -0.462}

The results go on:
{"Target gene": "RAD51AP1", "mean correlation with KSR1 profile": -0.0249}
{"Target gene": "CUZD1", "mean correlation with KSR1 profile": -0.493}
{"Target gene": "DEFB126", "mean correlation with KSR1 profile": 0.304}
{"Target gene": "TULP2", "mean correlation with KSR1 profile": 0.139}
{"Target gene": "BRWD1", "mean correlation with KSR1 profile": -0.53}
{"Target gene": "SPARCL1", "mean correlation with KSR1 profile": 0.623}
{"Target gene": "SLC10A3", "mean correlation with KSR1 profile": -0.387}
{"Target gene": "ATXN1", "mean correlation with KSR1 profile": 0.742}
{"Target gene": "NAA10", "mean correlation with KSR1 profile": -0.393}
{"Target gene": "BEX2", "mean correlation with KSR1 profile": 0.196}
